In article PMC6647326 one finds binding data, which are given here for one substance.

Chains of the proteins cited; added tags and fusions are not shown. Lines headed by an entry give the natural chain unless they say otherwise; changes in a name come on top.
UniProt Q920B9: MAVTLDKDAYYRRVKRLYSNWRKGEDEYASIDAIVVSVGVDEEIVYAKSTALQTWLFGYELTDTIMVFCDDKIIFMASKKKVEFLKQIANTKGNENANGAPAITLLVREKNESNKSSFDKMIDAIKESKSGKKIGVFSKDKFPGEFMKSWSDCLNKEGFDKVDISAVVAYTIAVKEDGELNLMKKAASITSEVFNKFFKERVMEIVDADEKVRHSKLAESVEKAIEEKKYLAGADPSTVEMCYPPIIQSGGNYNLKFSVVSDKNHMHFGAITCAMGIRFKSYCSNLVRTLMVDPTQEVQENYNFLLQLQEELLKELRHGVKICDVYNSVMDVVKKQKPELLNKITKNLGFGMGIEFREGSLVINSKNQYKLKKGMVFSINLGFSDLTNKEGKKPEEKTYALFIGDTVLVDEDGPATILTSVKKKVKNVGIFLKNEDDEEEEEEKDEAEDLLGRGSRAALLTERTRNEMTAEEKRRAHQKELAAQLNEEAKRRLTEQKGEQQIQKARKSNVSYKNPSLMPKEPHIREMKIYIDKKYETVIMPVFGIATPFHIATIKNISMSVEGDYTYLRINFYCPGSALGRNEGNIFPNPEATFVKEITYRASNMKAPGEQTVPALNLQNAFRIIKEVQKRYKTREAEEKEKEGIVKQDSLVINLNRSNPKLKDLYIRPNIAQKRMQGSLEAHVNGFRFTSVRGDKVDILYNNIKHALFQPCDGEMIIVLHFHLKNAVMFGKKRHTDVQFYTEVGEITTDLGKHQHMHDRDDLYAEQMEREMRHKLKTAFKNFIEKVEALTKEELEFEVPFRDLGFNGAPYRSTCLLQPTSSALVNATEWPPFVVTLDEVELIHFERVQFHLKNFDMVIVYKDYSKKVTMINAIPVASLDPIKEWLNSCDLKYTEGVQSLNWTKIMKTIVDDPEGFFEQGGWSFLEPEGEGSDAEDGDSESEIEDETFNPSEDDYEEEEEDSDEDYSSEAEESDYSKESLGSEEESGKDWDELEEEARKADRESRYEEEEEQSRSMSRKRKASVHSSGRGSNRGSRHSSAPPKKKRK

Results are given in words; binding and its absence hold for the method and conditions named. In cells and extracts the contact can be indirect. Some results given as binding are weak or reduced against the parent protein; the word gives no strength.

This assay addresses T1, endogenous TRIM33 (mouse (endogenous in immortalized macrophages)) (UniProt Q99PP7).
T1 sequence: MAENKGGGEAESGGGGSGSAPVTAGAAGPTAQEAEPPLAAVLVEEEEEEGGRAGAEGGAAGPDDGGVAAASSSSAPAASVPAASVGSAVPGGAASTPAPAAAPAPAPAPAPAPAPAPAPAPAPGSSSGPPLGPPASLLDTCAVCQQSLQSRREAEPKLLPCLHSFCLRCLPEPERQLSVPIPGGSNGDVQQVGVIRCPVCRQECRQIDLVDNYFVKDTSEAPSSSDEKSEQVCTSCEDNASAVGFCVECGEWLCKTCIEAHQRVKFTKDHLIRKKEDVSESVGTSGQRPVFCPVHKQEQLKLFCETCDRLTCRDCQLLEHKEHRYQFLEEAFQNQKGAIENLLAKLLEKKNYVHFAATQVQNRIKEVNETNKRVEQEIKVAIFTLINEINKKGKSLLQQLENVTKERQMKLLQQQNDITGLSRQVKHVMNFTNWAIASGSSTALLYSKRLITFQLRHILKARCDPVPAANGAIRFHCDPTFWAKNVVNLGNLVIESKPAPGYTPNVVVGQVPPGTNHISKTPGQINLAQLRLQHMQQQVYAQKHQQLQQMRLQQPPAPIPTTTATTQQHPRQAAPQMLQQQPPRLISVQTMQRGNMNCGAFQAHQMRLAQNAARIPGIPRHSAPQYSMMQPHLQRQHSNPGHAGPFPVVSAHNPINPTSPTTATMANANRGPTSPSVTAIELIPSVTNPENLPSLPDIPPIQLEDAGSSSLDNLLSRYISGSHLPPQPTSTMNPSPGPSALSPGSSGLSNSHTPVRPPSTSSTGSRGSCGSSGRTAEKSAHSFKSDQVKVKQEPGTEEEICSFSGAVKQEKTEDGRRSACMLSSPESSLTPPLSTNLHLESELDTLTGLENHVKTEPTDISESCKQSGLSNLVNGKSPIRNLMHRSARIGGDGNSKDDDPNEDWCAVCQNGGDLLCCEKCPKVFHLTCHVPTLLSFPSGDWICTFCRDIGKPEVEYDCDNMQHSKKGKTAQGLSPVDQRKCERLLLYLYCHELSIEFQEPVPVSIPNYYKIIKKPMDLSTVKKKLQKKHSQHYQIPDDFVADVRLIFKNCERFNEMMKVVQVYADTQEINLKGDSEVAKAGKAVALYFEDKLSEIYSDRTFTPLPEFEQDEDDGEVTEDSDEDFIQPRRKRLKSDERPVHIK
In words: co-IP; immunoprecipitation of endogenous proteins from nuclear extracts of immortalized macrophages, followed by immunoblotting. (In general: A western blot detects proteins with antibodies after separation by electrophoresis.)

With “FACT complex (heterodimer of SPT16 and SSRP1) (from UniProt Q920B9 1-1047; Q08943 1-708)”, the binding entry is “binds”.
